# Primary screen of a compound library

Measurements from “University of Dundee, Small-Polar-MMV Screening Library” (2021), ChEMBL document CHEMBL3988442.

Mtb cholesterol medium: 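Growth of Mycobacterium tuberculosis over 4 days (cholesterol / DPPC medium with tyloxapol); the read-out is not stated. Tested at 50 µM. Direction is inferred from retests: higher values go with more growth inhibition. Size under these conditions: about 69,000 compounds, about 370 of them at 50% or above in at least one test.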
Mtb glucose medium: 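Whole-cell growth test on Mycobacterium tuberculosis, read after 3 days in glucose-containing 7H9 medium; the read-out is not stated. Concentration: 50 µM. The record gives no direction; compounds that gave an IC50 in retests scored well above the rest, so higher reads as more growth inhibition. About 69,000 compounds were tested under these conditions; 1.1% (about 760) showed 50% or more at least once.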

Results are given as percent effect. How 0% and 100% were set is not recorded. Most values in the screen are low, and negative values occur. The compounds are a random part of those screened. Two or more numbers in one place are separate tests of the same structure; such repeats can differ widely.

Result for CN1CCCNC(=O)C12CCN(C(=O)c1ccc3[nH]cnc3c1)CC2 was Mtb cholesterol medium: 7.697%; Mtb glucose medium: -36.94%.
Result for COCC1CC2(CCN(CC3CC3)CC2)CN1c1ncccn1.O=C(O)C(F)(F)F.O=C(O)C(F)(F)F (stereo unspecified) was Mtb cholesterol medium: -12.66%; Mtb glucose medium: -1.106% & -0.7333%.
Result for COc1c(C(=O)NCc2cnn(C)c2C)nnn1Cc1ccccc1 was Mtb cholesterol medium: -16%; Mtb glucose medium: -44.46%.
Result for CC1COCCN1c1ncnc2sccc12 (stereo unspecified) was Mtb cholesterol medium: -7.629% & -9.886%; Mtb glucose medium: -18.79%.
Result for Cc1cn2nc(N3CCCCC3Cn3cccn3)sc2n1 (stereo unspecified) was Mtb cholesterol medium: -13.41%; Mtb glucose medium: -12.49%.
Result for COc1nn(C)c2c1CCCN(C(=O)c1cccs1)C2 was Mtb cholesterol medium: -0.5883%; Mtb glucose medium: -12.29%.
Result for [H][C@@]12CNC[C@]1([H])N(C(=O)C1CCC1)CCO2 was Mtb cholesterol medium: 7.604%; Mtb glucose medium: -56.55% & -14.62%.
Result for CC(C)NC1CCc2c(ccc(=O)n2CC2CC2)C1.O=C(O)C(F)(F)F (stereo unspecified) was Mtb cholesterol medium: -20.65% & -39.26%; Mtb glucose medium: -27.25%.
Result for CN(C)C(=O)CN1CCC(c2cncc(-c3cccc(Cl)c3)n2)CC1 was Mtb cholesterol medium: -0.3875%; Mtb glucose medium: 36.87%.
Result for Cc1ccccc1N1CCCN(C(=O)CCc2ccncc2)CC1 was Mtb cholesterol medium: 10.46%; Mtb glucose medium: 20.2%.
Result for CC(SCC(=O)NC(N)=O)c1ccc(Cl)cc1 (stereo unspecified) was Mtb cholesterol medium: 3.103%; Mtb glucose medium: 6.959% & 7.49%.
Result for CO[C@H]1CN(Cc2c(C)ccc3ncccc23)CC[C@H]1N was Mtb cholesterol medium: -0.1742%; Mtb glucose medium: -3.487%.
Result for C=C(C)CN(CC)Cc1nc(C2CC2)no1 was Mtb cholesterol medium: -2.111% & 6.078%; Mtb glucose medium: 4.423% & -15.75%.
Result for CC(C)N(C)CCCNC(=O)c1cnc(-c2ccccc2)nc1 was Mtb cholesterol medium: -8.417%; Mtb glucose medium: 2.381%.
Result for Cc1nc(C)n(CC2CN(Cc3cc(C#N)ccc3F)CCO2)n1 (stereo unspecified) was Mtb cholesterol medium: -7.422%; Mtb glucose medium: 24.43%.
Result for CCn1cnc2c(c(Br)nn2C)c1=O was Mtb cholesterol medium: -10.09%; Mtb glucose medium: 3.662% & -7.732%.
Result for CC(C)CCNC(=O)CCc1ccnc2ccccc12 was Mtb cholesterol medium: 7.894%; Mtb glucose medium: 10.68% & 9.838%.
Result for CN1CCN(C(=O)c2ccc3c(c2)nc(N2CCOCC2)n3C)CC1=O was Mtb cholesterol medium: -20.63%; Mtb glucose medium: -24.79%.
Result for Cc1ccc(-c2cn[nH]c2C2CCCN(c3cnccn3)C2)cc1 (stereo unspecified) was Mtb cholesterol medium: -15.94%; Mtb glucose medium: 2.107%.
Result for Cc1c(-c2cnn(C)c2)nc(N)c(C#N)c1-c1ccc(CO)o1 was Mtb cholesterol medium: -10.1% & -14.1%; Mtb glucose medium: -43.2% & -9.568%.
Result for Cc1nnc(SCCC(=O)N(C)Cc2c(F)cccc2Cl)[nH]1 was Mtb cholesterol medium: 36.17% & 38.16%; Mtb glucose medium: 48.13%.
Result for Cc1noc(C)c1-c1n[nH]c2c1CN(S(=O)(=O)c1ccsc1)CC2 was Mtb cholesterol medium: -15.35%; Mtb glucose medium: -16.24% & -5.625%.
Result for CNC(=O)C1CN(C)CCN1c1nc(C)cc(C)n1 (stereo unspecified) was Mtb cholesterol medium: 4.484%; Mtb glucose medium: -12.63%.
Result for CC(=O)N1CCC(N2CC(Cc3nccc4ccn(C)c34)C2)CC1 was Mtb cholesterol medium: -12.41%; Mtb glucose medium: -5.929%.

For reference, 3 entries once more:

compound	Mtb cholesterol medium	Mtb glucose medium
CN1CCN(C(=O)c2ccc3c(c2)nc(N2CCOCC2)n3C)CC1=O	-20.63%	-24.79%
CN1CCCNC(=O)C12CCN(C(=O)c1ccc3[nH]cnc3c1)CC2	7.697%	-36.94%
CC(=O)N1CCC(N2CC(Cc3nccc4ccn(C)c34)C2)CC1	-12.41%	-5.929%